# Reference: PubChem BioAssay AID540276 (National Center for Advancing Translational Sciences (NCATS), 2011)
# Screen size: about 300,000 compounds; about 5,400 (1.8%) were called active. The inconclusive results got no clear call from the source; some entries with a clear call stand among them for comparison. Calls follow the shape of the full dose curve; tested in HEK293 cells. Where the call is inconclusive, the potency comes from a doubtful curve fit.
# Assay: qHTS for inhibitors of binding or entry into cells for Marburg Virus
# Conditions: Marburg virus pseudotyped entry inhibition, cell reporter; activity change, negative = inhibition: at 37.8 µM (top of the series) unless noted
# % is scaled to controls: 0 for no effect and ±100 for the full control effect; potency is read from the fitted curve at half-maximal effect.
Compound,Potency,"activity change, negative = inhibition"
c1cnc(N2CCN(Cc3ccc4c(c3)OCO4)CC2)nc1,"inconclusive: 20.6 µM [activator, single point]",
Cc1ccc2nc(NC(=O)c3ccc(OCC4CCCO4)cc3)sc2c1 (stereo not given),"inconclusive: 29.1 µM [inhibitor, single point]",
CCC1=C(c2ccc(C)cc2)S(=O)(=O)N=C1N1CCC(C(=O)NCc2ccc(C)cc2)CC1,"inconclusive: 35.5 µM [inhibitor, single point]",
CCCC(=O)NC(=S)Nc1ccc(S(=O)(=O)N2CCc3ccccc32)cc1,"inconclusive: 7.08 µM [inhibitor, partial curve, poor fit]",
COc1ccccc1N1CCN(C(=O)CSc2nnc3n2C(C)(C)Cc2ccccc2-3)CC1,"inconclusive: 4.61 µM [inhibitor, single point]",
CNC(=O)c1ccc(Nc2nnc(-c3ccc(C)c(S(=O)(=O)NCC4CCCO4)c3)c3ccccc23)cc1 (stereo not given),"inconclusive: 15.8 µM [inhibitor, partial curve]",
CCOC(=O)c1ccc(N2C(=O)Cc3ccccc3C2=O)cc1,"inconclusive: 5.62 µM [inhibitor, full curve, poor fit]",
O=C(Nc1nccs1)c1cn(-c2ccccc2)nc1-c1ccncc1,"inconclusive: 7.94 µM [inhibitor, partial curve, poor fit]",
O=C(Nc1sc2c(c1C(=O)NCC(O)CO)CCCC2)c1ccccc1 (stereo not given),"inconclusive: 22.4 µM [inhibitor, partial curve, poor fit]",
COc1cc2c(C(=O)N3CCN(c4cc(Cl)ccc4C)CC3)cn(CC(C)C)c(=O)c2cc1OC,"inconclusive: 3.16 µM [inhibitor, single point]",
O=C(Cn1cc(S(=O)(=O)N2CCN(c3ccccc3F)CC2)c2ccccc2c1=O)Nc1ccc(F)cc1Cl,"inconclusive: 6.31 µM [inhibitor, partial curve, poor fit]",
O=C(NCCc1ccccc1)C(=S)N1CCCCC1,"inconclusive: 6.31 µM [inhibitor, partial curve, poor fit]",
CCCCCCCNC1=CC(=O)CC(c2ccco2)C1 (stereo not given),,inactive: -11.1%
OCCN(CCO)CC(O)COc1ccc(C23CC4CC(CC(C4)C2)C3)cc1 (stereo not given),"inconclusive: 9.2 µM [inhibitor, partial curve, poor fit]",
COc1cc2c(cc1OC)CN(C(=S)NC(=O)c1ccccc1)CC2,"inconclusive: 6.31 µM [inhibitor, partial curve]",
CNC(=S)Nc1ccc2nc(C)oc2c1,,inactive: 5% [at 46.1 µM]
C1=Nc2c(Nc3ccccc3)ncnc2Oc2ccccc21,"inconclusive: 0.13 µM [activator, single point]",
CCOc1ccc2nc(NC(=O)c3ccoc3C)sc2c1,"inconclusive: 7.08 µM [inhibitor, partial curve, poor fit]",
CS(=O)(=O)N1CCC(Oc2cccc(C(=O)NCCCOc3cccnc3)c2)CC1,,inactive: -4.16%
COC(=O)CSc1nc2c(c(-c3ccc(O)cc3)c1C#N)CCCC2,"inconclusive: 12.6 µM [inhibitor, partial curve, poor fit]",
COc1ccc(C(C(=O)NC2CCCC2)N(C(=O)c2ccoc2C)c2ccc(C)c(C)c2)cc1 (stereo not given),"inconclusive: 8.91 µM [inhibitor, partial curve]",
Cc1nnc(Nc2ccc(C(=O)O)cc2)[nH]c1=O,"inconclusive: 3.16 µM [activator, single point]",

# 3 records picked at random from the list so far, as already listed:
Compound,Potency,"activity change, negative = inhibition"
O=C(Cn1cc(S(=O)(=O)N2CCN(c3ccccc3F)CC2)c2ccccc2c1=O)Nc1ccc(F)cc1Cl,"inconclusive: 6.31 µM [inhibitor, partial curve, poor fit]",
Cc1nnc(Nc2ccc(C(=O)O)cc2)[nH]c1=O,"inconclusive: 3.16 µM [activator, single point]",
COc1ccc(C(C(=O)NC2CCCC2)N(C(=O)c2ccoc2C)c2ccc(C)c(C)c2)cc1 (stereo not given),"inconclusive: 8.91 µM [inhibitor, partial curve]",

# (cont.)

Compound,Potency,"activity change, negative = inhibition"
COc1ccc(N2CCN(C(=O)COC(=O)c3oc4ccc(OC)cc4c3C)CC2)cc1,,inactive: 6.4%
O=C(CSc1nc(-c2ccccc2)c(-c2ccccc2)[nH]1)Nc1nccs1,"inconclusive: 4.11 µM [inhibitor, partial curve, poor fit]",
Cc1ccc2c(c1)c(N=Nc1ccc([N+](=O)[O-])cc1)c(O)n2C,"inconclusive: 3.16 µM [activator, single point]",
COc1ccc(Cn2nnnc2C(c2ccc(N(C)C)cc2)N2CCC(C)CC2)cc1 (stereo not given),"inconclusive: 14.1 µM [inhibitor, partial curve, poor fit]",
CC1C/C(=N/NC(=O)c2cccs2)CC(C)(C)C1 (stereo not given),"inconclusive: 0.146 µM [inhibitor, single point]",
O=C(Nc1ccc(NC(=S)NC(=O)c2ccccc2F)cc1)c1cccs1,"inconclusive: 11.2 µM [inhibitor, partial curve, poor fit]",
COc1ccccc1C(=O)N1CCN(Cc2c[nH]c3ccccc23)CC1,,inactive: 0.818% [at 46.1 µM]
O=C(NCc1ccc(Cl)cc1)C1CCCN1C(=O)Nc1ccccc1 (stereo not given),"inconclusive: 0.562 µM [inhibitor, single point]",
Clc1ccc(OCc2cn3ccccc3n2)c2ncccc12,"inconclusive: 15.8 µM [inhibitor, single point]",
CCOC(=O)c1c(NC(=O)CSc2cn(CCNC(=O)c3c(F)cccc3F)c3ccccc23)sc2c1CCCC2,,inactive: -3.1% [at 46.1 µM]
COc1ccc(NC(=O)NNC(=O)C(C)Oc2ccc3ccccc3c2)cc1 (stereo not given),,inactive: 25%
CN1CCN(c2ncnc3sc(-c4ccccc4)cc23)CC1,"inconclusive: 25.9 µM [inhibitor, single point]",
C(=N\Nc1nc(N2CCOCC2)nc(N2CCOCC2)n1)/c1cccnc1,,inactive: 7.12%
Cc1ccc(C)c(N2CCN(C(=O)C3CCCN(S(=O)(=O)c4cccc5nonc45)C3)CC2)c1 (stereo not given),,inactive: -9.07% [at 46.1 µM]
O=C(NCC(c1ccco1)N1CCCCC1)c1ccc([N+](=O)[O-])s1 (stereo not given),"inconclusive: 3.98 µM [inhibitor, full curve, poor fit]",
COc1ccc(C(=O)NC2CCSc3ccccc32)cc1S(=O)(=O)N1CCOCC1 (stereo not given),,inactive: 29.8%
CC(C)Cc1ccc(C2=CSC3=NCCN23)cc1,"inconclusive: 17.8 µM [inhibitor, single point]",
COc1ccccc1N1CCN(C2CC(=O)N(c3cccc(Br)c3)C2=O)CC1 (stereo not given),"inconclusive: 35.5 µM [inhibitor, single point]",
COC(=O)CNC(=O)CSc1nnc(C)c(=O)[nH]1,"inconclusive: 1.26 µM [activator, single point]",
O=C(O)c1ccc2c(c1)C1C=CCC1C(c1ccncc1)N2 (stereo not given),"inconclusive: 1.58 µM [inhibitor, partial curve, poor fit]",
CN1CCN(c2ccc(-c3ccc4ccccc4n3)cc2)CC1,"inconclusive: 3.55 µM [inhibitor, partial curve, poor fit]",
O=C(NCc1ccco1)c1cccc(S(=O)(=O)N2CCCC2)c1,,inactive: 2.44% [at 46.1 µM]

Compound,Potency,"activity change, negative = inhibition"
COc1ccc(Cl)cc1NC(=O)Cn1nnc(C(=O)NCc2ccc3c(c2)OCO3)c1N,inactive,
CCCN(Cc1ccccc1)C(=S)Nc1ccc(OC(F)F)cc1,"inconclusive: 0.708 µM [activator, full curve, poor fit]",
CCOC(=O)c1cccc(NC(=O)CSc2nnnn2CC)c1,"inconclusive: 20.6 µM [activator, partial curve, poor fit]",
Cc1nn(CC(=O)N(CC(C)C)C2CCS(=O)(=O)C2)c(C)c1[N+](=O)[O-] (stereo not given),,inactive: 2.51%
CN(C)c1ccc(CN(Cc2ccco2)C(=O)c2ccc(F)cc2)cc1,"inconclusive: 6.31 µM [activator, single point]",
C[N+]1(CC#CC(O)(c2ccccc2)c2ccccc2)CCCC1,"inconclusive: 6.31 µM [activator, full curve, poor fit]",
COn1c(C)c(C)c2c3nonc3ccc21,"inconclusive: 0.0891 µM [inhibitor, full curve, poor fit]",
CC(/C=C/c1ccccc1)=N\NC(=S)NC(C)C,"inconclusive: 10 µM [inhibitor, partial curve, poor fit]",
O=C(NCCN1CCCCC1)c1ccc(Cn2c(SCc3ccc(F)cc3)nc3cccnc32)cc1,"inconclusive: 10 µM [inhibitor, partial curve, poor fit]",
O=c1[nH]c(COc2ccc(Cl)cc2Cl)nc2ccccc12,,inactive: 6.98% [at 46.1 µM]
CC(C)(C)c1nc(SCC(=O)Nc2ccc3c(c2)OCCO3)c2ccccc2n1,"inconclusive: 32.6 µM [inhibitor, single point]",
O=C(O)CCC(NC(=O)C(Cc1ccc2c(c1)OCO2)NC(=O)c1ccccc1)C(=O)O (stereo not given),,inactive: -0.971%
COc1c(Cl)cc(C(=O)Nc2ccccc2C(=O)O)cc1Cl,"inconclusive: 18.3 µM [inhibitor, single point]",
CC1CN(S(=O)(=O)c2ccc(C(=O)Nc3nnc(-c4ccccn4)o3)cc2)CC(C)O1 (stereo not given),,inactive: -12.8% [at 46.1 µM]
COc1ccccc1-c1nc(-c2ccccc2)nc(N2CCN(C)CC2)c1C#N,"inconclusive: 22.4 µM [inhibitor, single point]",
C=CCn1c(Cc2cccs2)nnc1SCC(=O)c1ccc(F)cc1,,inactive: -16.7%
COc1ccc(CC(=O)N2CCN(c3ccc(C4=NNC(=O)CC4C)cc3)CC2)cc1 (stereo not given),"inconclusive: 0.501 µM [activator, full curve, poor fit]",
O=C(Nc1ccccc1N(C(=O)c1ccco1)S(=O)(=O)c1cccs1)c1ccco1,"inconclusive: 20 µM [inhibitor, single point]",
COC(=O)C1=C(C(=O)OC)[C@@H]2Nc3ccccc3[C@@]23C[C@@H](C(=O)OC)N(C(=O)COCc2ccccc2)C3=N1,,inactive: 5.99% [at 14.2 µM]
CCCOC(=O)c1c(NC(=O)C2CCCO2)sc(C(=O)OC)c1C (stereo not given),"inconclusive: 4.47 µM [inhibitor, partial curve, poor fit]",
Cc1cc(C(=O)N/N=C/c2c[nH]c3ccccc23)c(C)o1,"inconclusive: 1.26 µM [inhibitor, single point]",
